# Experimental data from PubChem BioAssay (NCATS).
# Values joined by “and” are separate entries in the source; they are usually repeats but may differ in a detail not shown here. Identical values can stand only once. Some of the results follow. Further columns of the screen follow, without active or inactive calls. Compounds called inactive in the main read-out are mostly missing here. For some assays here: The note in brackets gives the kind of curve behind each potency; many fits are weak.
# Tests used:
# [1] = qHTS assay for small molecule antagonists of retinoid X receptor alpha signaling (AID 588546); conditions: HEK293T RXRa-UAS-bla, beta-lactamase ratio, antagonist mode; measured here: W530 green channel, cytotoxicity proxy;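 also: cells stimulated with 9-cis-retinoic acid as agonist; % is scaled to controls: 0 for no effect and ±100 for the full control effect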
# How it was run: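 Beta-lactamase reporter inhibition, read as CCF4 fluorescence ratio (ex 405, em 460/530 nm) after 2 h at RT. HEK293T UAS-bla cells, 2500/well, were stimulated with 9-cis-RA at 500 or 100 nM final alongside test compound for 18 h at 37 C.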
# [2] = qHTS assay for small molecule agonists of retinoid X receptor alpha signaling (AID 588544); conditions: HEK293T RXRa-UAS-bla, beta-lactamase reporter, 18 h; 530 nm emission
# [3] = S16 Schwann cell PMP22 intronic element beta-lactamase assay (AID 624044); conditions: S16 rat Schwann cells, PMP22 element beta-lactamase FRET, 24 h; measured here: 460 nm blue channel
# How it was run: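 Beta-lactamase reporter under a PMP22 intronic regulatory element in stable S16 rat Schwann cells; 24 h compound exposure. 460 nm blue signal normalized between DMSO (0%) and potassium clavulanate, with 535 nm FRET tracking viability; curves classed by r2 and response.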
# [4] = qHTS Assay for Inhibitors of PDE-IV (AID 607); conditions: HEK293 ACTOne CNG channel cells, membrane potential fluorescence; measured here: parental cell counter-screen
# How it was run: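 ACTOne HEK293 cells carry a modified cAMP-gated CNG channel and express endogenous PDE4; plated 1000 cells/well, compounds up to 22.9 uM final. Membrane-potential dye fluorescence (ex 535/em 590) was read; parental cells received 10 uM forskolin + 100 uM RO 20-1724.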
compound,measurement,setting,value
CCCCCCC(O)CCCCCCCCCCC(=O)O (centres undefined),max response,[1],0.416%
CCCCNC(=O)NS(=O)(=O)c1ccc(C)cc1,max response,[2],1.32%
same,max response,[1],-0.874%
CC(C)CCCCCCc1ccc(O)cc1,max response,[2],-45.7%
same,max response,[1],-45.2%
N[C@@H](Cc1cc(I)c(Oc2ccc(O)c(I)c2)c(I)c1)C(=O)O,max response,[1],5.24%
CC(COc1ccc(C(C)(C)C)cc1)OS(=O)OCCCl (centres undefined),max response,[2],15.6%
same,max response,[1],1.32%
NCCCCCCCCCCC(=O)O,max response,[1],-4.81%
CCOC(=O)NCCOc1ccc(Oc2ccccc2)cc1,max response,[2],12.8%
same,max response,[1],-2.31%
CC1CC(OC(=O)c2ccccc2O)CC(C)(C)C1 (centres undefined),max response,[2],-22%
Cc1ccc2oc(=O)ccc2c1,max response,[1],-10.6%
Cc1cc(C)c(N)c(Cl)c1,max response,[1],3.31%
O=C(O)CCCCCCCCC(=O)O,max response,[1],0.0561%
Oc1ccc(C(c2ccc(O)cc2)C(Cl)(Cl)Cl)cc1,max response,[2],21.4%
same,max response,[1],2.96%
CC(C)C[C@H](NC(=O)OCC1c2ccccc2-c2ccccc21)C(=O)O,max response,[2],32.4%
same,max response,[1],12.6%
CN1C(=O)c2ccccc2C1=O,max response,[1],-11.4%
c1ccc2c(c1)ccc1cc3c(ccc4ccccc43)cc12,max response,[1],-7.56%
Nc1c2ccccc2nc2ccccc12,max response,[2],22.9%
same,max response,[1],30.1%
same,AC50,[3],"22.4 µM [falling, partial curve]"
CCCOC(=O)c1cc(O)c(O)c(O)c1,max response,[1],1.18%
O=C(c1ccccc1)C(O)c1ccccc1 (centres undefined),max response,[1],-11.9%
c1ccncc1,max response,[1],-10.4%
S=C1NC=NC2N=CNC12 (centres undefined),max response,[2],41%
same,AC50,[3],"5.01 µM [falling, full curve]"
CN(C)C=O,max response,[1],-12.5%
CC(C)(C)c1cc(C(C)(C)C)c(O)c(C(C)(C)C)c1,max response,[1],-14%
CC/C=C/CCCCCCCCCCOC(C)=O,max response,[1],-9.46%
CCN(Cc1c(F)cccc1Cl)c1c([N+](=O)[O-])cc(C(F)(F)F)cc1[N+](=O)[O-],max response,[2],-1.55%
same,max response,[1],-15%
COc1cccc(N)c1,max response,[1],-10.2%
C[C@@H](C(=O)O)[C@H]1C[C@]1(C)[C@H](NC(=O)OCc1ccccc1)c1ccccc1,AC50,[4],"0.631 µM [rising, single point]"
COC(=O)[C@@]1(Cc2ccc(OC)cc2)[C@H]2c3cc(C(=O)N4CCCC4)n(CCn4cc([N+](=O)[O-])nc4C)c3C[C@H]2CN1C(=O)c1ccccc1,AC50,[4],"0.0126 µM [falling, full curve, poor fit]"
COc1ccc(C(=O)N2CCC3(CCCN(Cc4ccncc4)C3)CC2)cc1,AC50,[4],"3.98 µM [rising, single point]"
C[C@@H](C(=O)NCc1ccccc1)[C@@H]1C[C@@]1(C)[C@@H](NC(=O)OCc1ccccc1)c1ccccc1,AC50,[4],"0.631 µM [rising, single point]"
COc1ccccc1-c1ccc2ncnc(NCCN3CCOCC3)c2c1,AC50,[4],"2.51 µM [rising, single point]"
COc1ccccc1CN1CC2(CCN(C(=O)c3cc(C(F)(F)F)cc(C(F)(F)F)c3)CC2)C1,AC50,[4],"10 µM [rising, single point]"
S=C(S)O[C@@H]1C[C@@H]2C[C@H]1[C@@H]1CCC[C@H]21,AC50,[4],"12.6 µM [rising, partial curve]"
COc1ccc(C(=O)N2CCC3(CCN(CC(C)C)CC3)CC2)cc1,AC50,[4],"3.98 µM [rising, single point]"
CC/C(C)=N/O,max response,[1],-5.21%
Clc1ccc(CO[C@@H](Cn2ccnc2)c2ccc(Cl)cc2Cl)cc1,AC50,[4],"5.01 µM [rising, single point]"
CCC[C@@H]1C[C@@]1(CCC)C(NC(=O)c1ccco1)c1ccc(Cl)cc1 (some centres undefined),AC50,[4],"12.6 µM [rising, single point]"
CN(C)c1nc(=O)n(C2CCC(O)CC2)c(=O)n1C (centres undefined),max response,[1],-9.35%
COc1ccc2nc3c(cc2c1)Cc1ccccc1-3,AC50,[4],"10 µM [rising, single point]"
O=C(Oc1ccccc1)N1CCC2(CCCN(c3ccccc3)C2)CC1,AC50,[4],"10 µM [rising, single point]"
N#Cc1cccc(NC(=O)N2CCCC3(CCN(S(=O)(=O)c4ccccc4)CC3)C2)c1,AC50,[4],"0.631 µM [rising, single point]"
Cc1noc(C)c1C(=O)N1CCC[C@@]2(CCN(C(=O)Nc3cccc(F)c3)C2)C1,AC50,[4],"3.98 µM [rising, single point]"
COC(=O)[C@@]1(Cc2ccc(OC)cc2)[C@H]2c3cc(C(=O)N4CCCC4)n(CCc4ccc(OC)c(Br)c4)c3C[C@H]2CN1C(=O)c1ccccc1,AC50,[4],"12.6 µM [rising, single point]"
CNc1nc(-c2ccccc2CN(C)C)nc2ccccc12,AC50,[4],"12.6 µM [rising, single point]"
Nc1ncnc2c1ncn2[C@@H]1O[C@@H](C(=O)NC2CC2)[C@H](O)[C@@H]1O,AC50,[4],"6.31 µM [rising, partial curve, poor fit]"
COc1cc([C@H]2c3cc4c(cc3[C@@H](O)[C@@H]3COC(=O)[C@H]23)OCO4)cc(OC)c1OC,AC50,[4],"5.01 µM [rising, partial curve] and 501 nM [rising, partial curve, poor fit]"
c1ccc(Nc2ncnc3ccc(-c4ccc5c(c4)OCO5)cc23)cc1,AC50,[4],"12.6 µM [rising, single point]"
COC(=O)[C@@]1(Cc2ccc(F)cc2)[C@H]2c3cc(C(=O)N(C)C)n(Cc4ccc(OC)c(OC)c4)c3C[C@H]2CN1C(=O)c1ccccc1,AC50,[4],"7.94 µM [rising, partial curve]"
Cc1ccc(CNC(=O)[C@H](C)[C@H]2C[C@]2(C)[C@H](NC(=O)OCc2ccccc2)c2ccccc2)o1,AC50,[4],"0.0158 µM [falling, full curve, poor fit]"
COC(=O)[C@@]1(Cc2ccc(F)cc2)[C@H]2c3cc(C(=O)N(C)C)n(CC4CC4)c3C[C@H]2CN1C(=O)c1ccccc1,AC50,[4],"3.98 µM [rising, single point]"
